Experimental findings from patent EP4595978A1, “ANTI-CD33 ANTIBODY AND ANTI-CD33 ANTIBODY-DRUG CONJUGATE AND USE THEREOF” (SystImmune, Inc., priority 2022, dated 2024) are described below.

Amino acid sequences for entries named in this document (tags omitted). Residues count along the entry.
UniProt P20138, residues 18-259: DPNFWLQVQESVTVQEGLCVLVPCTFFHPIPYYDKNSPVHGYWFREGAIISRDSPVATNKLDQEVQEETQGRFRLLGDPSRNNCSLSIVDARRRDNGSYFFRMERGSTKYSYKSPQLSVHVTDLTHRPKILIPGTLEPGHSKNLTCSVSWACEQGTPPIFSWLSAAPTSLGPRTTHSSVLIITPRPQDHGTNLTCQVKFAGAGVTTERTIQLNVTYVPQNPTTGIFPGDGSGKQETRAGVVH

The target in assay [1] is T1, recombinant human CD33 protein (Homo sapiens, UniProt P20138). Description: ELISA on recombinant human CD33 (figure legend).
For assay [2], the target named is T1, recombinant human CD33 protein. Description: ELISA, recombinant human CD33 coated at 0.5 ug/mL.

Results are given in words; binding and its absence hold for the method and conditions named. Some entries that bind do so weakly or less than the wild type.

B1: anti-CD33 naked antibody (Antibody 2) (antibody, human IgG1, kappa, V domains shown)
VH: EVQLVQSGAEVKKPGSSVKVSCKASGYTITDSNIHWVRQAPGQSLEWIGYIYPYNGGTDYNQKFKNRATLTVDNPTNTAYMELSSLRSEDTAFYYCVNGNPWLAYWGQGTLVTVSS
VL: DIQLTQSPSTLSASVGDRVTITCRASESLDNYGIRFLTWFQQKPGKAPKLLMYAASNQGSGVPSRFSGSGSGTEFTLTISSLQPDDFATYYCQQTKEVPWSFGQGTKVEVKR
As to B1, the binding entry in assay [1] and in assay [2] was “binds” throughout.
